Test results reported in PMC10344862.
These are yes or no findings as the source states them, for the method shown. Binding seen in cells or lysates may run through a third protein. Here binding means that the protein was enriched with, or labelled near, the bait; the list need not be complete.

Chains of the proteins cited; added tags and fusions are not shown. Residues count along the entry.
UniProt Q9Y6N7, residues 26-1651: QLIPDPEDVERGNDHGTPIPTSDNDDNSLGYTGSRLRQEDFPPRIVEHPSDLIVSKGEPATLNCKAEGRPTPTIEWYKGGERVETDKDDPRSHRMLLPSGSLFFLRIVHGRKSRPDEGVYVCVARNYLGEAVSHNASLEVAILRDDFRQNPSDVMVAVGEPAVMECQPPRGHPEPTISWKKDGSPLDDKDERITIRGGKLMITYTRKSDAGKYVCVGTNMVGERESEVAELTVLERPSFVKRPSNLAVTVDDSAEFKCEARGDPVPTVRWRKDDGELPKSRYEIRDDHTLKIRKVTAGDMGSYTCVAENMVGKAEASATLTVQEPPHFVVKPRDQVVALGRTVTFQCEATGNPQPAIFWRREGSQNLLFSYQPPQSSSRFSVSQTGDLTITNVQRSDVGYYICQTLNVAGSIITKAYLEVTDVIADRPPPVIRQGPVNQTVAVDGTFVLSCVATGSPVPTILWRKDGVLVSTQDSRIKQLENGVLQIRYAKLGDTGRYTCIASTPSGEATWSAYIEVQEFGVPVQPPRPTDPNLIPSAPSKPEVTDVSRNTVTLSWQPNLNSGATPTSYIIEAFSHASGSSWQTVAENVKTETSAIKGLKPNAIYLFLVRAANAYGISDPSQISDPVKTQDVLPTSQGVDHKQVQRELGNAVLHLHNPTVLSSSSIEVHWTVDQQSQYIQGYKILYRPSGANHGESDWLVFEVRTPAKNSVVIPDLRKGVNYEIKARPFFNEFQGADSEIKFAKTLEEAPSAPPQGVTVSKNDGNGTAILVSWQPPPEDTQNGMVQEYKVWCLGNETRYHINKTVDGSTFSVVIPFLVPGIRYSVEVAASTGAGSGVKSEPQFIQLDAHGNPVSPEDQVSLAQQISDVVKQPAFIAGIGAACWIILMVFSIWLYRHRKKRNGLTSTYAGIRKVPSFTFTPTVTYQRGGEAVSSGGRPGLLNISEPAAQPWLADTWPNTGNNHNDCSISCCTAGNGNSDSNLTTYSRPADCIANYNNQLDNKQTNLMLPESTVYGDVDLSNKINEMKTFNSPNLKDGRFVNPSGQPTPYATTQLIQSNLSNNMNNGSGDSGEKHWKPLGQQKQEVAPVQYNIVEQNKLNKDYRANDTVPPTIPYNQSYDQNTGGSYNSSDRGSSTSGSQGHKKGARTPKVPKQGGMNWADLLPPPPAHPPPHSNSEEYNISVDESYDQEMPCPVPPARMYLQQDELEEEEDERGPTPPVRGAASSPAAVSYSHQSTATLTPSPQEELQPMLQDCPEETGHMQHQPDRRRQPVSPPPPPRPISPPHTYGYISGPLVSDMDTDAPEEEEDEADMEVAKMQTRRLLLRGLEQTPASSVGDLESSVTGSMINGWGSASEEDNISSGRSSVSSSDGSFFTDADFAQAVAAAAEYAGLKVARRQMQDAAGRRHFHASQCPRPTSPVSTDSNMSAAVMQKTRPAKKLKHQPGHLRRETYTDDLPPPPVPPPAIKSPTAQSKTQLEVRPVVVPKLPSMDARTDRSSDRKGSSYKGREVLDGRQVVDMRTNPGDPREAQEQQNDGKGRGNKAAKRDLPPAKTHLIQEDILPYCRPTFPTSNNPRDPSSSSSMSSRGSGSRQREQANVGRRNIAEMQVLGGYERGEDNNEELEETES
UniProt Q8TD19: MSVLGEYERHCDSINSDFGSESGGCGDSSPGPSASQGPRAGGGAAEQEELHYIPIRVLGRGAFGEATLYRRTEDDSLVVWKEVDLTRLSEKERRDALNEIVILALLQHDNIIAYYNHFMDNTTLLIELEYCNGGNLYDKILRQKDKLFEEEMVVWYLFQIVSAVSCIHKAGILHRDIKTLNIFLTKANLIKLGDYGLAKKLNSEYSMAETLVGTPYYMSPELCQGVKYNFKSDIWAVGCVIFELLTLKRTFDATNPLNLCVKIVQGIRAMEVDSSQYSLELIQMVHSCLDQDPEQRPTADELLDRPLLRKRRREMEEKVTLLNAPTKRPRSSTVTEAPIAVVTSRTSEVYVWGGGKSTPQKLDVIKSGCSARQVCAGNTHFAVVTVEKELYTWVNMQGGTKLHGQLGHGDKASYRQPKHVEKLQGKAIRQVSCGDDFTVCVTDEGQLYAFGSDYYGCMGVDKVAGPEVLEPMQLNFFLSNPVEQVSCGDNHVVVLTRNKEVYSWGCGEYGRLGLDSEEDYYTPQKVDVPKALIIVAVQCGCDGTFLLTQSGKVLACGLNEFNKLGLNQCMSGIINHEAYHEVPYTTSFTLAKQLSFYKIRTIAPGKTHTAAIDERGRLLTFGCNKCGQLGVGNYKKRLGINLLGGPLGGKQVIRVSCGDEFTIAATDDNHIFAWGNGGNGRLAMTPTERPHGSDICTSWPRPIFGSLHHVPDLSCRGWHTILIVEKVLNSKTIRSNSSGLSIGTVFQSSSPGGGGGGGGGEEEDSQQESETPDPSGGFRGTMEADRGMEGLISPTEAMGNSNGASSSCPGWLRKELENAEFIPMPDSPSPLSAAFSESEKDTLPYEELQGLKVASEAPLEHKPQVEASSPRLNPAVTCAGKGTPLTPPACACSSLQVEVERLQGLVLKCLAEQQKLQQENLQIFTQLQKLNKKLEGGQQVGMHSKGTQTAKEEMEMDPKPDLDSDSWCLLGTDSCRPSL

Biological target: ROBO1 (source not told: bait of the mass spectrometry analysis; partner in the co-IP of Fig. 2E) (UniProt Q9Y6N7)
Assay: affinity purification with mass spectrometry; potential interacting proteins of ROBO1 analysed by mass spectrometry; bait, cells and conditions not told

## NEK9 (source not told: hit of the mass spectrometry analysis; partner in the co-IPs of Fig. 3G, H) (from UniProt Q8TD19 1-979) (enzyme)
  binding: binds
